The subject of experiment [1] is HepG2 cells. Kind of experiment: Mitotoxicity, XTT viability in glucose vs galactose medium. The conditions noted are these: Homo sapiens, HepG2, 24 h. As for the experimental part: (A) Hepatotoxicity provoked by compound 4 was assessed after 72 h incubation of HepG2 cells in low glucose medium (5 mM) in the presence of compound 4 (0.25–100 μM). (B) Mitochondrial toxicity was determined after 24 h incubation of HepG2 cells in either high glucose medium (25 mM) or galactose medium (10 mM) in the presence of compound 4 (2.5–150 μM). Cell viabilities were recorded in triplicates in three independent experiments and expressed as percentage of vehicle control ± SD and IC50 values were determined by GraphPad Prism software using following equation: Y = Bottom + (Top–Bottom)/(1 + 10ˆ((LogIC50-X)^∗HillSlope)), where IC50 is the concentration of compound 4 that inhibits cell viability half way between Bottom and Top plateaus, X is compound 4 concentration and HillSlope describes the steepness of the family of curves. […] (C) Concentration-dependent effect on ROS level. HepG2 cells were treated with compound 4 (0.25–100 μM) for 72 h, and then the intracellular level of total ROS in relative fluorescence units (RFU) was detected. […]
The cytotoxicity of the tested compounds was assessed with use of XTT cell proliferation kit II (Roche Diagnostics GmbH, Mannheim, Germany) according to the manufacturer’s instructions. […] Mitochondrial toxicity was assessed in HepG2 cells using glucose and galactose conditioned media and XTT assay as a read out for cell viability. […]
A general note: Tetrazolium assays rely on reduction of a dye to a coloured formazan, in cell work by metabolically active cells.

Experiment [2] relates to HepG2 cells. Kind of experiment: Hepatotoxicity, XTT viability after 72 h. The settings on record: Homo sapiens, HepG2, 5.5 mM glucose. The experiment is classed as cell-based. As for the experimental part: Then, the cell viability (XTT assay) and reactive oxygen species (ROS) induction were evaluated.
(A) Hepatotoxicity provoked by compound 4 was assessed after 72 h incubation of HepG2 cells in low glucose medium (5 mM) in the presence of compound 4 (0.25–100 μM). (B) Mitochondrial toxicity was determined after 24 h incubation of HepG2 cells in either high glucose medium (25 mM) or galactose medium (10 mM) in the presence of compound 4 (2.5–150 μM). Cell viabilities were recorded in triplicates in three independent experiments and expressed as percentage of vehicle control ± SD and IC50 values were determined by GraphPad Prism software using following equation: Y = Bottom + (Top–Bottom)/(1 + 10ˆ((LogIC50-X)^∗HillSlope)), where IC50 is the concentration of compound 4 that inhibits cell viability half way between Bottom and Top plateaus, X is compound 4 concentration and HillSlope describes the steepness of the family of curves. […] HepG2 cells were treated with compound 4 (0.25–100 μM) for 72 h, and then the intracellular level of total ROS in relative fluorescence units (RFU) was detected. […]
The cytotoxicity of the tested compounds was assessed with use of XTT cell proliferation kit II (Roche Diagnostics GmbH, Mannheim, Germany) according to the manufacturer’s instructions. […] The XTT absorbance was recorded at 495 nm after 1 h incubation with the dye. […]

Results on one molecule are retold here after paper PMC6240685, “Strong Inhibitory Effect, Low Cytotoxicity and High Plasma Stability of Steroidal Inhibitors of N-Methyl-D-Aspartate Receptors With C-3 Amide Structural Motif” (Frontiers in Pharmacology, 2018).

As a reminder, the IC50 is the concentration that inhibits the measured activity by half. As for `CCCCc1oc2ccccc2c1C(=O)c1cc(I)c(OCCN(CC)CC)c(I)c1` [Amiodarone, amiodarone, reference compound], the IC50 turned out to be 23 ± 5 µM in experiment [1] (read-out: Mitotoxicity IC50, 10 mM galactose); 63 ± 9 µM in experiment [1] (read-out: Mitotoxicity IC50, 25 mM glucose); 4.9 ± 0.2 µM in experiment [2].
